Reference: patent US12319703B2, “Macrocyclic fused pyrazoles as Mcl-1 inhibitors” (ASCENTAGE PHARMA (SUZHOU) CO., LTD., priority 2019, dated 2025)

By UniProt entry, the sequences of proteins in these tests, tags left out. Residues count along the entry.
UniProt Q07820, 171-323 limits assumed: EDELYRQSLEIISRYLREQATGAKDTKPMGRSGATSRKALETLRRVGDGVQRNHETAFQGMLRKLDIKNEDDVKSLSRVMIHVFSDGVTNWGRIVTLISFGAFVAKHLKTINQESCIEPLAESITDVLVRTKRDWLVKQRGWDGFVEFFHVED

Assays:
OPM-2 cells = assay: Cell viability assay (OPM-2 cells), CCK-8; conditions: read-out: OPM2 (WST, 5% FBS), 24 h
Method: Cell Viability Assay (OPM-2 Cells)
OPM-2 cells were obtained from Deutsche Sammlung von Mikroorganismen und Zellkulturen GmbH (DSMZ). […]
The effect of representative Compounds of the Disclosure on cell viability was determined using Cell Counting Kit-8 (CCK-8) assay (Shanghai Life iLab Bio Technology) according to the manufacturer's instructions. Each tested compound was serially diluted in culture medium, 100 μL of the compound dilution was added into 96-well plates. 100 μL of an OPM-2 cell suspension (20000 cells/well) in culture medium were seeded into the corresponding well of the plate and the cells were incubated at 37° C. in an atmosphere of 5% CO2 for 24 hours. In the next day, 20 μL of CCK-8 solution was added to each well of the plate and incubated for 4 hours.
The plates were read at 450 nm on the microplate spectrophotometer (SpectraMax plus 384, Molecular devices). The readings were normalized to the vehicle cells, and the IC50 was calculated by nonlinear regression analysis using GraphPad Prism 6 software.

NCI-H929 cells = assay: Cell viability assay (NCI-H929 cells), CCK-8; conditions: read-out: H929 (WST, 5% FBS), 24 h
Method: Cell Viability Assay (NCI-H929 Cells)
NCI-H929 cells were obtained from American Type Culture Collection (ATCC). Cells were maintained in the recommended culture medium (RPMI 1640) with 10% FBS and 0.05 mM BME at 37° C. and an atmosphere of 5% CO2.
The effect of Compounds on cell viability was determined using Cell Counting Kit-8 (CCK-8) assay according to the manufacturer's instructions. 95 μL of NCI-H929 cell suspension (20000 cells/well) in culture medium were seeded into 96-well plates and cultured 4 hrs. Each tested compound was serially diluted in DMSO, then 5 μL of the compound or DMSO was diluted in 95 μL medium once more. At last, 5 μL of the compound dilution was added to the corresponding well of the cell plate. After the addition of the tested compound, the cells were incubated at 37° C. in an atmosphere of 5% CO2 for 24 hrs. At the end, 10 μL of CCK-8 solution was added to each well of the plate and incubated for 1-4 hours. The plates were read at 450 nm on the microplate reader (BioTek Synergy 1MF). The readings were normalized to the vehicle cells, and the IC50 was calculated by nonlinear regression analysis using GraphPad Prism 6 software.

[1] = target: Mcl-1 protein (residues 171-323) (Homo sapiens, UniProt Q07820); assay: Inhibition of Mcl-1 by fluorescence polarization (FP) competitive binding assay; conditions: read-out: FP-Binding; FAM-Bid tracer 2 nM, Mcl-1 20 nM, 30 min

Cn1c(C(=O)O)c2c3ccc(Cl)c(c31)-c1c(nn3c1CCC3)CSCc1ccc(nc1)CSc1cc(c3ccc(F)cc3c1)OCCC2
IC50 (OPM-2 cells): 145 nM | IC50 (NCI-H929 cells): 58 nM | IC50 [1]: 14.3 nM

Structures were worked out from names or drawings and are uncertain.
